In all, about 360,000 compounds went through this assay and about 10,000 (2.8%) were called active. The inconclusive results got no clear call from the source; some entries with a clear call stand among them for comparison. Calls follow the shape of the dose curve; as a rule, active = well fitted inhibition curve with a large enough effect; inconclusive = small, poorly fitted or top-dose-only effect; inactive = flat fitted curve, though single readings scatter. Potencies beside an inconclusive call are fits to weak or partial responses and may not hold up.
Target: Serine/threonine-protein kinase PLK1 (Homo sapiens) (UniProt P53350)
Experiment: qHTS for Inhibitors of PLK1-PDB (polo-like kinase 1 - polo-box domain): Primary Screen; also: nearly all actives have a fitted effect of over 65% in size; as to max response, negative = inhibition: series mostly up to about 57 µM
Conditions: Plk1 PBD binding of FITC phosphopeptide, fluorescence polarization
% is scaled to controls: 0 for no effect and ±100 for the full control effect; potency is read from the fitted curve at half-maximal effect.

Protein sequences, listed by entry. Tags and fused reporters are not part of them.
UniProt P53350, whole entry, looked up: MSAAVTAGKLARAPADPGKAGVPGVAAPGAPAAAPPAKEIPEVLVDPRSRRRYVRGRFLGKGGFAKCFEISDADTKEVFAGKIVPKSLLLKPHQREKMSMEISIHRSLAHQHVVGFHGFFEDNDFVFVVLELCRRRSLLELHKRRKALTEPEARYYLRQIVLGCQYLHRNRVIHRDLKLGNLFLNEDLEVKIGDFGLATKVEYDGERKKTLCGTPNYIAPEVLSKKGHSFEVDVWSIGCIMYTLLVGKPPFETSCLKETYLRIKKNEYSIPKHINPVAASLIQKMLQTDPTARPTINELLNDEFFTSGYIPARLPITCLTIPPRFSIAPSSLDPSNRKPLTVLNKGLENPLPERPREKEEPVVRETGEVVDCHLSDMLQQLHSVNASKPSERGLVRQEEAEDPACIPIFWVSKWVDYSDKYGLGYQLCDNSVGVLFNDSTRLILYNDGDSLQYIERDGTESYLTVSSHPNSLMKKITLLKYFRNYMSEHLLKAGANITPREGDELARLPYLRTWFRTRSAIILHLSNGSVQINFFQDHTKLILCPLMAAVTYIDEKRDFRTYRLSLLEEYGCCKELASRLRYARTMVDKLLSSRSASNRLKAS

| SMILES | Potency | max response, negative = inhibition |
| --- | --- | --- |
| S=c1[nH]c2cc(Cl)ccc2s1 | active: 1.89 µM |  |
| COc1ccc(S(=O)(=O)Nc2ccc(-c3ccc4nnc(C)n4n3)cc2)c(OC)c1 | inconclusive: 26.7 µM [inhibitor, single point] |  |
| CCOC(=O)C1CCN(Cc2cc(C(C)(C)C)c(O)c(C(C)(C)C)c2)CC1 | inconclusive: 29.9 µM [inhibitor, single point] |  |
| COc1ccccc1CCC(=O)Nc1ccc(S(=O)(=O)Nc2cc(C)nc(C)n2)cc1 |  | inactive: -7.45% |
| COc1ccc(C(=O)N2c3ccccc3CC2C)cc1OC (stereo not drawn) | active: 26.7 µM |  |
| Cc1onc(-c2ccccc2)c1C(=O)NC(=S)NNC(=O)c1ccc(O)cc1O | inconclusive: 26.7 µM [inhibitor, single point] |  |
| CC(Oc1ccccc1)C(=O)N=C1SC2CS(=O)(=O)CC2N1Cc1ccc(F)cc1 (stereo not drawn) |  | inconclusive: -16.7% [inhibitor] |
| COc1ccc(-n2nnnc2-c2cccnc2)cc1 |  | inactive: -4.8% |
| CN1CCC2(CC1)N=C(c1ccc(F)cc1)C(=S)N2C(=O)c1ccccc1 | inconclusive: 9.47 µM [inhibitor, partial curve] |  |
| CCc1ccc(N2CC(C(=O)OCC(=O)Nc3ccc(C(C)=O)cc3)CC2=O)cc1 (stereo not drawn) |  | inactive: 2.31% |
| Cc1nc(SCc2ccccc2C#N)n[nH]1 |  | inconclusive: -30.3% [inhibitor] |
| CCCCn1c(N)c(N(CC)C(=O)C2COc3ccccc3O2)c(=O)[nH]c1=O (stereo not drawn) |  | inactive: -0.241% |
| Clc1ccc(-n2nnnc2-c2ccno2)cc1 |  | inactive: -4.98% |
| Cc1cc([N+](=O)[O-])nn1CC(=O)Nc1ccc(Cl)cn1 |  | inactive: -5.55% |
| N#Cc1c(NC(=O)c2ccncc2)sc2c1CCC2 | inconclusive: 29.9 µM [inhibitor, partial curve] |  |
| CCOc1ccc(/C=C(\C(=O)O)c2ccc(S(=O)(=O)N3CCCCC3)s2)cc1OC |  | inactive: -12.4% |
| Cc1cc(C)c(S(=O)(=O)N2CCOC2CNC(=O)C(=O)NCc2ccncc2)c(C)c1 (stereo not drawn) |  | inactive: -5.89% |
| Cc1oc(-c2ccc(Cl)cc2)nc1CN1CCC(C(=O)NCc2ccco2)CC1 |  | inactive: -10.1% |
| N#Cc1c(NC(=S)NC(=O)c2ccccc2)sc2c1CCCC2 | inconclusive: 10.6 µM [inhibitor, partial curve] |  |
| Cc1cc(N2CCN(c3ccccc3Cl)CC2)n2cc(-c3ccccc3)nc2n1 |  | inactive: -3.65% |
| Cn1c(=O)c2[nH]c(SCCN3CCCCC3)nc2n(C)c1=S | inconclusive: 29.9 µM [inhibitor, partial curve] |  |
| COc1ccc(S(=O)(=O)n2oc(=O)cc2-c2ccccc2)cc1OC | inconclusive: 18.9 µM [inhibitor, partial curve] |  |
| CCOc1ccc(S(=O)(=O)NCCC(=O)N(C)CC(=O)Nc2ccc(N3CCOCC3)cc2)cc1 |  | inactive: -1.92% |
| CCOC(=O)C1=NN(C(C)=O)C2(CC(=O)N(c3cccc(C)c3)C2=O)C1 (stereo not drawn) | active: 26.7 µM |  |

| SMILES | Potency | max response, negative = inhibition |
| --- | --- | --- |
| CCOC(=S)N/C(=N\S(=O)(=O)c1ccccc1)c1ccccc1 | active: 18.9 µM |  |
| CS(=O)(=O)c1ccc(Cl)c(NC(=O)CSC(=S)N2CCCC2)c1 | inconclusive: 37.7 µM [inhibitor, partial curve, poor fit] |  |
| O=C1NN(c2ccc(F)c(Cl)c2)C(=O)/C1=C\c1cccc(OC(=O)c2cccs2)c1 | active: 1.06 µM |  |
| Cc1cccc(NC(=S)N(Cc2cccs2)Cc2cc3cc(C)cc(C)c3[nH]c2=O)c1 |  | inactive: 4.01% |
| O=C(CSc1nc2ccccc2s1)Nc1cc(C(=O)O)cc(C(=O)O)c1 | inconclusive: 26.7 µM [inhibitor, partial curve] |  |
| Cc1cc(N=Cc2c(O)ccc3cc(Br)ccc23)no1 | active: 5.32 µM |  |
| O=C(O)C1CCN(c2nc(-c3ccccc3)c3cc(Br)ccc3n2)CC1 | inconclusive: 29.9 µM [inhibitor, single point] |  |
| CC1(C)NC(=O)N(CCOCCOc2ccccc2-c2ccccc2)C1=O |  | inactive: 1.08% |
| CCc1nn2c(=O)cc(COc3ccc(/C=C4\C(=N)N5N=C(CC(C)C)SC5=NC4=O)cc3)nc2s1 | inconclusive: 18.9 µM [inhibitor, partial curve] |  |
| COc1ccc(N(CC(=O)N2CCOCC2)S(C)(=O)=O)c(OC)c1 | active: 21.2 µM |  |
| COc1ccc(Cc2n[nH]c(=S)n2N)cc1OC | active: 11.9 µM |  |
| CCC(=O)N1CCC1(C)C(=O)Nc1cc(-c2ccccc2)nn1C (stereo not drawn) |  | inactive: -1.57% |
| O=C(N/N=C/c1ccccc1[N+](=O)[O-])c1cccs1 |  | inactive: -3.12% |
| Cc1nc([N+](=O)[O-])c(Br)n1CC(=O)c1ccc2ccccc2c1 | inconclusive: 29.9 µM [inhibitor, single point] |  |
| Cc1ccc(OCC(=O)Nc2nnc(S(=O)(=O)N3CCCCC3)s2)cc1 | inconclusive: 29.9 µM [inhibitor, partial curve] |  |
| CCOC(=O)C1=C(O)/C(=C\c2cc(C)n(-c3ccc(F)cc3)c2C)N=C1C | inconclusive: 33.6 µM [inhibitor, single point] |  |
| O=C(O)c1ccc(CSc2nnc(COc3ccccc3)o2)cc1 | inconclusive: 21.2 µM [inhibitor, single point] |  |
| COC(=O)c1cc(=O)nc(NN=C2c3ccccc3-c3ccccc32)s1 | active: 29.9 µM |  |
| COc1cc(C(=S)N2CCCCC2)ccc1O | inconclusive: 29.9 µM [inhibitor, partial curve] |  |
| Oc1ccc(CNc2ccc(F)cc2)c2cccnc12 | active: 3.36 µM |  |
| O=C1NC(=S)SC1=Cc1cccs1 | inconclusive: 33.6 µM [inhibitor, single point] |  |
| O=C(CSc1nnc2ccc(-c3ccc(F)cc3)nn12)N1CCCC1 | inconclusive: 23.8 µM [inhibitor, single point] |  |
| O=C(COC(=O)/C=C/c1ccccc1Cl)NC1CCCCCC1 | inconclusive: 21.2 µM [inhibitor, single point] |  |
| Oc1ccccc1C(=S)N1CCCCC1 | active: 26.7 µM |  |

Three entries from above, with tabs.
SMILES	Potency	max response, negative = inhibition
O=C(N/N=C/c1ccccc1[N+](=O)[O-])c1cccs1		inactive: -3.12%
Cc1nc([N+](=O)[O-])c(Br)n1CC(=O)c1ccc2ccccc2c1	inconclusive: 29.9 µM [inhibitor, single point]	
Cc1ccc(OCC(=O)Nc2nnc(S(=O)(=O)N3CCCCC3)s2)cc1	inconclusive: 29.9 µM [inhibitor, partial curve]	

Source: PubChem BioAssay AID720504 (National Center for Advancing Translational Sciences (NCATS), 2013)
